# Experimental data reported in the supplement of paper PMC10338343.
# ± gives the standard deviation. The entries are a selection whose mix differs from that of the whole data set. Many of these values have a large error.
# Test system: MIWI (PIWIL1) piRISC loaded with Kctd7 piRNA (30 nt)
# Assay: pre-steady-state target cleavage rate (min^-1); MIWI and MILI are mouse PIWI proteins and EfPiwi is from a freshwater sponge; tags in brackets are library labels; higher = faster piRNA-guided slicing of the target
# Conditions: guide: Kctd7 piRNA 5'p-UGUUAAUCUCUCAGAGAAGGUGACAGUGAU; auxiliary factor: 500 nM mouse GTSF1
# How it was run: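 Cleave-'n-Seq used a transcribed, DNA-blocked target RNA library at 0.1 nM and active affinity-purified piRISC with one synthetic guide at 1 nM, with or without 500 nM GTSF1 partner protein, in HEPES–potassium acetate buffer at 33 °C for 0–8 or 0–960 min. Uncleaved targets were sequenced and normalised to depth and to weakly complementary targets, and three trials were pooled with k3 capped at 0.0001 min^-1. The pre-steady-state cleavage rate was estimated by a burst-and-steady-state fit.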
row,Sequence,pre-steady-state target cleavage rate
1,UAGUGACUCAGGUUCUCUGAGAGAUUAACA,0.00154 ± 0.0039
2,UAGUGACAGUGGUUAUCUGAGAGAUUAACA,0.000185 ± 0.03
3,UUCACUGUCACGUUCUCUGAGAGAUAUUGA,0.00298 ± 0.0037
4,UAGUGACUCACCUUCUUCUGAGAGAUUAACA,0.00337 ± 0.0044
5,UAGUGACAGUGGAAGAGAGAGUGAAUAACA,0.000316 ± 0.014
6,UAGACUGUCACCUUCUCUGUCUCUAAUUGA [g12:g27:cont:t1A],0.000315 ± 0.012
7,UAGUGACAGUCCUUCUCUCAGAGAUUAAGA,0.000811 ± 0.008
8,UAGACUGUCACCUUCUCUCUGAGAUAUUGA,0.000409 ± 0.0084
9,UACACUGUCACCAUUCUCUGAGAGAUUAACA,0.674 ± 0.035
10,UAGUGACAGUCCUUCUCUCAGAGAUUUACA,0.00153 ± 0.0053
11,UAGUGACAGUCCAUCUCUCAGAGAUUAACA,0.00113 ± 0.0071
12,UUCUCUGUCACCAUCUCUGAGAGAUUAACA,0.514 ± 0.023
13,UACACUCGUCACCUUCUCUGAGAGAUUAACA,0.77 ± 0.035
14,UAGUGACAGUCCUUCUCUGGAGAUUAACA,0.00118 ± 0.0053
15,UAGUGACAGUGGAUCUCUGAGGGAUUAACA,0.000358 ± 0.012
16,UACACUGGUCACCUUCUCUGAGAGAUUAACA,0.676 ± 0.038
17,UAGUGACAGACCUUCACUGAGAGAUUUUGA,0.0022 ± 0.0057
18,UAGUGACAGUGGAAGAGACACAGAUUAUCA,0.000403 ± 0.02
19,UAGUGACAGUCCUUCUCUGAUGAGAUUAACA,0.000188 ± 0.011
20,UAGUGACAGACCUCUCUGAGAGAUUAACA,0.0034 ± 0.0036
21,AUCACUGUCACCUUCUCUGACUCAUUAUGA,0.00142 ± 0.0058
22,UAGUGAGUCACCUUCUGUCAGAGAUUAACA,0.00937 ± 0.0041
23,UAGUGACAGUCCUUGUGUGAGAGAUUAACA,0.000594 ± 0.015

row,Sequence,pre-steady-state target cleavage rate
1,UAGUGACUCACCUUCUUGAGAGAUUAACA,0.000852 ± 0.0098
2,UAGUCUGUCACCUUCUCACUCUCUAAUUGA [g14:g26:cont:t1A],0.00094 ± 0.009
3,UAGUGACAGUGCUUCUGUGAGAGAAUAACA,0.0021 ± 0.0056
4,UAGUGACUCACCUUCAGAGAGAGAUAUUGA,0.000375 ± 0.022
5,UAGUGAGUCACCUUCAGAGAGAGAUUAUGA,0.0015 ± 0.0099
6,UAGUCUGUCACCUUCUGAGAGAGAUUAUGA,0.00348 ± 0.0046
7,UAGUGACAGACCUUCUCUGAGAGAAAAAGA,0.000426 ± 0.018
8,UUCACUGUCACCUUCUCUGAGACUAUAAGA,0.00175 ± 0.0042
9,UAGUGACUCACCUUCUCUCUCAGAUUAACA,0.000441 ± 0.014
10,AUACUGUCACCUUCUCUGAGAGAUUAACA,0.756 ± 0.043
11,UAGUGUGUCACCUUGAGUGAGAGAUUUUGA,0.00119 ± 0.0095
12,UUCACUGUCACCUUCUCUGACUCAUUAAGA,0.00222 ± 0.0036
13,UAGUGAGAGACCUUCUCUGAGAGAUAUUGA,0.0031 ± 0.0047
14,UAGUGACAGUCCUUCUCAGAGACAUUAACA,0.00301 ± 0.0033
15,UACACUGUCACCUUCUCUGUCUGAUUUUGA,0.00432 ± 0.0066
16,UAGUGACAGUGCUUCUCUGAGAGAUGAACA,0.00101 ± 0.0037
17,UAGUGUGUCACCUUCUCUGAGUCAUUUUGA,0.00226 ± 0.005
18,UAGUGACACACCUUCUCUGACUCAUUAAGA,0.000302 ± 0.0086
19,UAGUGACAGUGGAAGACAGACAGAUUAACA,0.000254 ± 0.023
20,UUCACUGUCACUUUCUCUGAGAGAUUAACA,0.691 ± 0.026
21,UUCACUGUCACCUUCUCUCUCUCUAAUUGA [g13:g29:cont:t1A],0.00292 ± 0.0046
22,UAGACUGUCACCUUCUCUGACAGAUUUUGA,0.0004 ± 0.012
23,UAGUGACAGUCCUUCUCUGACUCAUUAACA,0.000149 ± 0.021

row,Sequence,pre-steady-state target cleavage rate
1,UAGUGACAGUCCUUCUCUGAGUCAUUAACA,0.000476 ± 0.01
2,UAGUGACAGUGGAACUCUGAGCAGAUUAACA,0.00398 ± 0.0068
3,UAGACUGUCAGCUUCUCUGAGAGAUAUUGA,0.000414 ± 0.013
4,UAGUGACACACCUUCUCUGAGACAUUUUGA,0.000326 ± 0.019
5,UAGUGACAGUGGAUCUCUGAGAGAUUGACA,0.000421 ± 0.015
6,UACACUGUCACCUUCUCACAGAGAUAUUGA,0.00268 ± 0.0063
7,UAGUGACAGUGCUUCUCUGAGAGUUUUACA,0.000382 ± 0.017
8,UAGACUGUCACCUUGACUGAGAGAUUAUGA,0.00153 ± 0.0053
9,UAGUGACAGUCCUUCUCUCUGAGAUUAUGA,0.000671 ± 0.01
10,UAGUGAGUCACCUUCUCUGAGCAGAUUAACA,0.00233 ± 0.0082
11,UAGUGACAGUGGUUCUCUGAGCAGAUUAACA,0.000144 ± 0.017
12,UAGUGACUCACCUUCUCAGAGAGAUAAACA,0.027 ± 0.0057
13,UAGUGACAGUCCUUCUCAGAGAGAUAAACA,0.00194 ± 0.0046
14,UAGUCAGUCACCUUCUCUGAGAGAUUAACA,0.722 ± 0.034
15,UAGUGACAGUGGAAGACUGAGUCUUUAACA,0.000358 ± 0.019
16,UUCACUGUCACCUUCUCUGAGAGAAAAUGA,0.0429 ± 0.015
17,UACACUGUCACCUUCUCUGAGAGAUUAACC [g2:g28:cont:t1C],0.391 ± 0.034
18,UAGUGUGUCACCUUGACUGAGAGAUAUUGA,0.000424 ± 0.019
19,UAGUGACAGUGCUUCUCUGAGAGAUAUAACA,0.00174 ± 0.0042
20,UAGUGACUCACCUUCAGAGAGAGAUUUUGA,0.000652 ± 0.014
21,UAGUGACAGUGCUUCUCUGACGAGAUUAACA,0.000174 ± 0.016
22,UAGUGUGUCACCUUCUCUCUCAGAUUAACA,0.00132 ± 0.0072
23,UACACUGUCACCUUCUCUCUGAGAUUUUGA,0.00486 ± 0.0055

# Exported bar-delimited: part of the list above
row | Sequence | pre-steady-state target cleavage rate
1 | UAGUGACUCAGGUUCUCUGAGAGAUUAACA | 0.00154 ± 0.0039
2 | UAGUGACAGUGGUUAUCUGAGAGAUUAACA | 0.000185 ± 0.03
3 | UUCACUGUCACGUUCUCUGAGAGAUAUUGA | 0.00298 ± 0.0037
4 | UAGUGACUCACCUUCUUCUGAGAGAUUAACA | 0.00337 ± 0.0044
5 | UAGUGACAGUGGAAGAGAGAGUGAAUAACA | 0.000316 ± 0.014
6 | UAGACUGUCACCUUCUCUGUCUCUAAUUGA [g12:g27:cont:t1A] | 0.000315 ± 0.012
7 | UAGUGACAGUCCUUCUCUCAGAGAUUAAGA | 0.000811 ± 0.008
8 | UAGACUGUCACCUUCUCUCUGAGAUAUUGA | 0.000409 ± 0.0084
9 | UACACUGUCACCAUUCUCUGAGAGAUUAACA | 0.674 ± 0.035
10 | UAGUGACAGUCCUUCUCUCAGAGAUUUACA | 0.00153 ± 0.0053
11 | UAGUGACAGUCCAUCUCUCAGAGAUUAACA | 0.00113 ± 0.0071
12 | UUCUCUGUCACCAUCUCUGAGAGAUUAACA | 0.514 ± 0.023
13 | UACACUCGUCACCUUCUCUGAGAGAUUAACA | 0.77 ± 0.035
14 | UAGUGACAGUCCUUCUCUGGAGAUUAACA | 0.00118 ± 0.0053
15 | UAGUGACAGUGGAUCUCUGAGGGAUUAACA | 0.000358 ± 0.012
16 | UACACUGGUCACCUUCUCUGAGAGAUUAACA | 0.676 ± 0.038
17 | UAGUGACAGACCUUCACUGAGAGAUUUUGA | 0.0022 ± 0.0057
18 | UAGUGACAGUGGAAGAGACACAGAUUAUCA | 0.000403 ± 0.02
19 | UAGUGACAGUCCUUCUCUGAUGAGAUUAACA | 0.000188 ± 0.011
20 | UAGUGACAGACCUCUCUGAGAGAUUAACA | 0.0034 ± 0.0036
21 | AUCACUGUCACCUUCUCUGACUCAUUAUGA | 0.00142 ± 0.0058
22 | UAGUGAGUCACCUUCUGUCAGAGAUUAACA | 0.00937 ± 0.0041
23 | UAGUGACAGUCCUUGUGUGAGAGAUUAACA | 0.000594 ± 0.015
1 | UAGUGACUCACCUUCUUGAGAGAUUAACA | 0.000852 ± 0.0098
2 | UAGUCUGUCACCUUCUCACUCUCUAAUUGA [g14:g26:cont:t1A] | 0.00094 ± 0.009
3 | UAGUGACAGUGCUUCUGUGAGAGAAUAACA | 0.0021 ± 0.0056
4 | UAGUGACUCACCUUCAGAGAGAGAUAUUGA | 0.000375 ± 0.022

# Continued:

row,Sequence,pre-steady-state target cleavage rate
1,UAGACUGUCACCUUCUCUGACAGAUAUUGA,0.00031 ± 0.013
2,UAGACUGUCACCUUCUCUGAGAGAUUAACG [g2:g27:cont:t1G],0.674 ± 0.034
3,UAGUGACAGUGGAAGAGAGAGAGAUUUUCA,0.00025 ± 0.025
4,UAGACUGUCACCUUCUGUGAGAGAUAUUGA,0.0117 ± 0.004
5,UAGUCUGUCACCUUCUGACAGAGAUUAAGA,0.00049 ± 0.016
6,UAGACUGUCACGUUCUCUGAGUGAUUAACA,0.00628 ± 0.0015
7,UAGUGUGUCACCUUCUGAGAGAGAUUAUGA,0.00244 ± 0.0056
8,UUCACUGUACCUUCUCUGAGAGAUUAACA,0.712 ± 0.036
9,UAGUCUGUCACGUUCUCUGAGAGAUUUUGA,0.00232 ± 0.0034
10,UAGUGACAGUGCUUCUCUGAGUCAUUAACA,0.000186 ± 0.018
11,AAGACUGUCACCUUCUCUGAGAGAUUAACA,0.786 ± 0.036
12,UACACUGUCACCUUCUCUGACUCAUUAAGA,0.00166 ± 0.0069
13,UAGUGACAGUCCUUCUCUGAGAGUUAACA,0.000643 ± 0.0085
14,UAGACUGUGACCUUCUCUGAGAGAUAUUGA,0.00299 ± 0.0034
15,UAGUGACAGUCCUUGUCUCAGAGAUUAACA,0.000539 ± 0.014
16,UAGUGACACACCUUCAGUGAGAGAUUUUGA,0.00251 ± 0.0069
17,UACACUGUCACCUUCUCUCUCAGAUUUUGA,0.00166 ± 0.0088
18,UAGUGACAGUGCUUCUGUGAGUGAUUAACA,0.00258 ± 0.0033
19,UAGUGACAGUCCUUCUCUGAGAGAAUAAGA,0.000484 ± 0.011
20,UAGUGACAGACCUUCUCUGAGUCAUUAAGA,0.00073 ± 0.012
21,UAGUGACAGUCCAUCUCUGAGUGAUUAACA,0.000996 ± 0.0068
